Data on two molecules can be found in publication PMC7701097.

Results are given in words; binding and its absence hold for the method and conditions named. Binding can be weak; no strength is given.

Assay [1] has as its target OsBRCA2 (full length) (rice (Oryza sativa)). Put plainly: two-hybrid; yeast two-hybrid (Clontech); OsBRCA2 or its BRC1-6 fragment in pGBKT7, OsRAD51A1, OsRAD51A2, OsDMC1A, OsDMC1B in pGADT7; SD-4 (-Leu/-Trp/-His/-Ade/+ X-α-gal) selection medium.
The target of assay [2] is OsBRCA2 truncation containing BRC1-6 motifs (rice (Oryza sativa)). Described as above.

B1: OsDMC1A (protein, UniProt Q7GBF8 1-344)
chain: MAPSKQYSEGGQLQLMDAERIEEEEECFESIDKLISQGINSGDVKKLQDAGIYTCNGLMMHTKKSLTGIKGLSEAKVDKICEAAEKLLSQGFITGSDLLIKRKSVVRITTGSQALDKLLGGGIETLCITEAFGEFRSGKTQLAHTLCVSAQLPIHMHGGNGKVAYIDTEGTFRPERIVPIAERFGMDANAVLDNIIYARAYTYEHQYNLLLGLAAKMAEEPFRLLIVDSVIALFRVDFSGRGELAERQQKLAQMLSRLTKIAEEFNVAVYITNQVIADPGGGMFITDLKKPAGGHVLAHAATIRLMLRKGKGEQRVCKIFDAPNLPEGEAVFQVTSGGIMDAKD
As for B1, the binding entry in assay [1] and in assay [2] was “binds” each time.

B2: OsDMC1B (protein, UniProt Q7GBF7 1-344)
chain: MAPSKQYDEGGQLQLMDAERIEEEEECFESIDKLISQGINSGDVKKLQDAGIYTCNGLMMHTKKSLTGIKGLSEAKVDKICEAAEKLLSQGFMTGSDLLIKRKSVVRITTGSQALDELLGGGIETLCITEAFGEFRSGKTQLAHTLCVSTQLPIHMHGGNGKVAYIDTEGTFRPERIVPIAERFGMDANAVLDNIIYARAYTYEHQYNLLLGLAAKMAEEPFRLLIVDSVIALFRVDFSGRGELAERQQKLAQMLSRLTKIAEEFNVAVYITNQVIADPGGGMFITDPKKPAGGHVLAHAATIRLMLRKGKGEQRVCKIFDAPNLPEGEAVFQVTSGGIMDAKD
On to B2, for which the binding result in assay [1] and in assay [2] was “binds” each time.
